Test system: telomerase (extracts from A2780 human ovarian carcinoma cells)
Test: Modified telomeric repeat amplification protocol (TRAP) assay, cell-free
Type: biochemical
Conditions: Table 3
Method: The ability of compounds to inhibit telomerase in a cell-free assay was assessed with a modified TRAP assay using extracts from exponentially growing A2780 human ovarian carcinoma cells. The TRAP assay was performed in 2 steps: • (a) telomerase-mediated extension of the forward primer (TS: 5′-AATCCGTCGAGCAGAGTT, Oswel Ltd., Southampton, UK) contained in a 40 μL reaction mix comprising TRAP buffer (20 mM Tris-HCl (pH 8.3), 68 mM KCl, 1.5 mM MgCl2, 1 mM EGTA, 0.05% v/v Tween 20), 0.05 μg bovine serum albumin, 50 μM of each deoxynucleotide triphosphate, 0.1 μg TS primer, and 3 μCi of [α-P]dCTP (Amersham plc, UK)Protein (40 ng or 20 ng) was then incubated with the reaction mix and agent (acid addition and quaternary dimethiodide salts) at final concentrations of up to 50 μM for 20 min at 25° C. […] Telomerase-extended PCR products in the presence or absence of compounds were then determined either by electrophoretic separation using 8% w/w acrylamide denaturing gels and analysis by phosphorimaging or autoradiography, or by harvesting on Whatman filters (25 mm glass microfibre) and analysis by liquid scintillation counting.

| Compound | multiple in brackets beside TRAP EC50 (Cmax over TRAP EC50) |
| --- | --- |
| CN(C)c1ccc(Nc2c3ccc(NC(=O)CCN4CCCC4)cc3nc3cc(NC(=O)CCN4CCCC4)ccc23)cc1 [BSG01] | 16.5 x |
| O=C(CCN1CCCC1)Nc1ccc2c(NCc3ccc(F)c(F)c3)c3ccc(NC(=O)CCN4CCCC4)cc3nc2c1 [BSG17, N-(9-(3,4-Difluoro-benzylamino)-6-(3-pyrolidin-1-yl-propionamide)-acridin-3-yl)-3-pyrrolidin-1-yl-propionamide] | 53 x |

From patent publication US20080319001A1, “Cancer Treatment Using Specific 3,6,9-Substituted Acridines” (priority 2005, published 2008)
